# Taken from: PubChem BioAssay AID743121 (NCATS, 2013)
# Aim: 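Genes whose silencing strengthens cell killing by camptothecin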 (primary screen)
# Cell system: MDA-MB-231 cells, a human breast cancer line
# Reagents: single siRNA against human genes, 20 nM siRNA (0.8 pmol per well)
# Duration: 120 h (drug added 48 h after transfection, read 72 h later)
# Conditions: camptothecin 20 nM (about EC30) for 72 h; vehicle 0.1% DMSO in parallel plates
# Measured: 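CellTiter-Glo ATP signal, scaled to control siRNA as percent viability; sensitisation given as log2 of untreated divided by camptothecin-treated viability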
# Direction: log2 vehicle/camptothecin viability: higher = stronger sensitisation to camptothecin
# Call rule: 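Each gene scored by redundant siRNA activity (RSA) over its individual siRNA ratios; a gene is called active at p < 0.001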
# The whole screen tested about 26,000 reagents; below is a part drawn at random. 167 of all reagents (0.63%) count as active. 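Calls are per gene from RSA p-values that are not deposited; an individual active-marked siRNA can sensitise only weakly.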 Unmarked entries are inactive. The numbers tell different reagents against one gene apart. Not all columns of the deposit are shown.
The opening 3 records, to show the layout:
target gene,reagent no.,log2 vehicle/camptothecin viability
RAB24,1,0.204
RAB24,2,-0.347
RAB24,3,-0.3

Results, from the first entry:
target gene,reagent no.,log2 vehicle/camptothecin viability
RAB24,1,0.204
RAB24,2,-0.347
RAB24,3,-0.3
RAB24,4,-0.719
GPR157,1,-0.0511
GPR157,2,-0.509
GPR157,3,-0.158
GPR157,4,-0.301
CD27,1,-0.16
CD27,2,0.574
CD27,3,0.415
CD27,4,-0.26
SERPINB7,1,-0.0396
SERPINB7,2,-0.428
SERPINB7,3,0.0365
SERPINB7,4,0.586
TRADD,1,-0.0409
TRADD,2,-0.227
TRADD,3,0.863
TRADD,4,0.193
AK7,1,0.0316
AK7,2,-0.156
AK7,3,0.0356
AK7,4,-0.042
PGAM2,1,-0.127
PGAM2,2,0.578
PGAM2,3,-0.0755
PGAM2,4,0.835
